Experimental data published in publication PMC6433908.
These are yes or no findings as the source states them, for the method shown. Binding can be weak; no strength is given.

Assays:
[1] = target: erylysin A (EryA) (P. eryngii) (UniProt D0FZZ2); assay: SPR; large unilamellar vesicles of CPE/POPC/cholesterol (5/47.5/47.5) immobilised on a Biacore L1 chip to ~7000 RU; aegerolysin (0.25 uM OlyA6 or PlyA2, 5 uM EryA) injected alone or together with PlyB (molar ratio 12.5/1), 10 uL/min, 25 °C, 20 mM Tris, 140 mM NaCl, 5 uM EDTA, pH 7.4; the two proteins meet on the lipid membrane; both purified
[2] = target: pleurotolysin A2 (PlyA2) (P. eryngii); assay: as above

B1: Δ48PlyB (pleurotolysin B) (domain or fragment, UniProt Q5W9E8 49-523)
chain: SQAGDTLNDVIQDPTRRNKLINDNNLLKGIIMGRDGPVPSSRELIVRPDTLRAIINNRATIETTTMEAEFTETLMESNYNSASVKVSAPFITANSEYSESSSFKNTETEKSMYTSSRYLFPQGRIDFTTPDSGFDDVIKLSPQFTSGVQAALAKATGTEKREALQNLFQEYGHVFRTKVHIGGVLSAHTMETFSRSENETEVKQDVKAGLEGAVKGWGGGATAGHGNTQGTITTSQNRKLNVKYIVNGGDYTKIQNTEEWVASTNQSEHWRVIEVTEVTAVADLLPQPIRGQVKDLLKPLLGKWVDVEKVPGLESLPVSVYRPKGAIPAGWFWLGDTADASKALLVKPTLPARSGRNPALTSLHQGSGMTEQPFVDLPQYQYLSTYFGSFAHDTPPGSTLRGLRPDHVLPGRYEMHGDTISTAVYVTRPVDVPFPEDECFDLKSLVRVKLPGSGNPPKPRSALKKSMVLFDSGEK
[1]
  binding: binds
[2]
  binding: binds
